From PubChem BioAssay AID493014 (National Center for Advancing Translational Sciences (NCATS), 2011) come the findings set out here.

The other results are listed elsewhere or left out. Shown are side measurements of this screen, not its main read-out; they come without a call. Compounds called inactive in the main read-out are mostly missing here. The note in brackets gives the kind of curve behind each potency; many fits are weak.

The assay is described as follows: qHTS Assay to Find Inhibitors of Chronic Active B-Cell Receptor Signaling. Conditions: ABC-DLBCL IkBa-CBG/CBR reporter, luminescence ratio (green luciferase fused to IkBa over red control in TMD8 lymphoma cells), 4 h. The method in brief: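 TMD8 human ABC-DLBCL cells with doxycycline-inducible IκBα–green luciferase fusion and unfused red luciferase, in 0.5% FBS medium; compounds up to 46 uM, 4 h at 37C. Green/red luminescence ratio, filter-overlap corrected, fitted to concentration-response curves.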
For orientation: qHTS replaces the single test concentration by a dilution series.

Where [1] appears, read: measured here: CBR red luminescence, cell number.
The mark [2] stands for this setting: measured here: IkBa-CBG green luminescence.

The AC50 is the concentration at which the activity in the assay is half-maximal. In the case of `CCOC(=O)c1oc2ccc(S(=O)(=O)Nc3ccc4c(c3)n(C)c(=O)n4C)cc2c1C`, the AC50 under setting [1] was 16.4 µM [rising, single point].

As for `CCOc1ncccc1C(=O)OCC(=O)Nc1nnc(-c2ccccc2)o1`, the AC50 under setting [1] is 20.6 µM [falling, partial curve].

`CCN1CCN(C(=O)C2CCN(c3nnc(-n4c(C)ccc4C)s3)CC2)CC1`: the AC50 under setting [1] was 22.4 µM [falling, single point].

Regarding `CCOc1ccc(/C=C/C(=O)c2ccccc2)cc1`, the AC50 under setting [1] is 35.5 µM [falling, single point].

For the compound `O=C1/C(=C\c2ccc(O)cc2)SC(=S)N1/N=C/c1ccc(O)cc1`, the AC50 under setting [1] was 2.82 µM [falling, full curve, poor fit].

Take `COc1ccc(CNC(=O)CN(c2ccc(OC)cc2)S(=O)(=O)c2c(C)nn(C)c2C)cc1`: the AC50 under setting [1] was 20.6 µM [rising, partial curve, poor fit].

For the compound `CCc1ccc(Nc2nnc(SCC(=O)Nc3sccc3C(N)=O)s2)cc1`, the AC50 under setting [1] was 29.1 µM [falling, single point].

As for `CN1CCSc2ccc(C(=O)NCc3ccccc3F)cc21`, the AC50 under setting [1] is 22.4 µM [falling, partial curve, poor fit].

On to `CN(CC(=O)N1CCc2ccccc21)S(=O)(=O)c1ccc(Cl)cc1`, for which, under setting [1], the AC50 was 5.8 µM [rising, single point].

Regarding `CCCCOc1ccc(-c2nnc(N)s2)cc1`, the AC50 under setting [1] is 13 µM [rising, partial curve].

`Cc1cccc(C)c1NC(=S)NC(C)(C)CO`: the AC50 under setting [1] is 35.5 µM [rising, single point].

As for `O=C(N/N=C/c1ccco1)c1cc(-c2ccccc2)n[nH]1`, under setting [1], the AC50 was 10.3 µM [falling, partial curve, poor fit].

As to `O=C(c1oc2ccccc2c1CSCc1ccccc1)N1CCN(c2ncccn2)CC1`, the AC50 under setting [1] was 15.8 µM [falling, partial curve, poor fit].

Consider `N=c1oc2ccccc2cc1-c1nc(-c2ccc(Cl)cc2)cs1`, for which the AC50 under setting [1] was 14.6 µM [falling, single point].

Regarding `O=c1ccc2ccc(OCCOc3cccc(Cl)c3)cc2o1`, the AC50 under setting [1] was 1.41 µM [rising, partial curve, poor fit].

Take `COc1ccccc1-c1ccc(SCc2ccc([N+](=O)[O-])cc2)nn1`: the AC50 under setting [1] was 22.4 µM [falling, single point].

As for `O=C(CCNC(=O)c1ccc([N+](=O)[O-])cc1)NC1CCCCCC1`, the AC50 under setting [1] is 3.66 µM [falling, full curve].

As for `CC(C)c1ccc(/C=C/c2[nH]c(=O)[nH]c(=O)c2[N+](=O)[O-])cc1`, the AC50 under setting [1] was 3.55 µM [rising, single point].

Turning to `CNC(=O)c1ccsc1NC(=O)CCS(=O)(=O)c1ccc(F)cc1`, under setting [1], the AC50 was 32.6 µM [falling, single point].

On to `CC(C)(C)NC(=O)N1CCN(c2nc3ccc(Cl)cc3s2)CC1`, for which, under setting [1], the AC50 is 12.6 µM [rising, partial curve, poor fit].

For the compound `Cc1cc(C)cc(Oc2ncnc3c2ncn3Cc2c(Cl)cccc2Cl)c1`, the AC50 under setting [1] is 29.1 µM [falling, single point].

As for `CCCCC(c1nnnn1C1CCCC1)N1CCN(C(=O)c2ccco2)CC1` (stereo unspecified), the AC50 under setting [1] was 20.6 µM [rising, single point].

On to `COCCCN(C(=O)c1ccco1)c1nc(-c2cc(OC)ccc2OC)cs1`, for which the AC50 under setting [1] was 0.398 µM [rising, full curve].

On to `COC(=O)c1c(C)oc2ccc(NS(=O)(=O)c3cccs3)cc12`, for which the AC50 under setting [1] is 2.59 µM [falling, partial curve].

For `Cc1cccn2c(=O)c3cc(C#N)c(=N)n(CCN4CCOCC4)c3nc12`, the AC50 under setting [1] is 4.11 µM [falling, full curve, poor fit].

For the compound `CC(C)c1cccc(OCC(=O)Nc2ccc(S(=O)(=O)Nc3ccccn3)cc2)c1`, the AC50 under setting [1] is 0.501 µM [rising, full curve, poor fit].

As for `Cc1nn2c(nc1=O)NNC2(C)C(C)(C)C` (stereo unspecified), the AC50 is 20 µM [falling, partial curve, poor fit] under setting [1] and 35.5 µM [falling, single point] under setting [2].

In the case of `C[C@]12C=CC(=O)C=C1CC[C@@H]1C2[C@@H](O)C[C@@]2(C)C1CC[C@]2(O)C(=O)COC(=O)CCC(=O)O` (stereo partly specified), the AC50 under setting [1] is 0.251 µM [rising, full curve, poor fit].

`Cc1ccc2nc(NC(=O)C3CSC4(C)CCC(=O)N34)sc2c1` (stereo unspecified): the AC50 under setting [1] is 4.11 µM [falling, partial curve].

In the case of `CC[C@]12c3[nH]c4ccccc4c3CCN1C(=O)C(CC(=O)NCC13CC4CC(CC(C4)C1)C3)C[C@@H]2C(=O)N1CCN(C(=O)c2ccco2)CC1` (stereo partly specified), the AC50 under setting [1] is 23.1 µM [falling, partial curve, poor fit].

Turning to `O=C(c1cc2ccccc2o1)N1CCN(C/C=C/c2ccccc2)CC1`, the AC50 under setting [1] is 12.6 µM [falling, partial curve, poor fit].

With `OCCC1CN(Cc2ccccn2)CCN1C1CCCC1` (stereo unspecified), under setting [1], the AC50 was 0.501 µM [rising, full curve, poor fit].

On to `CCCCCC1(C(=O)OCC)CC(CSC(=N)N)OC1=O` (stereo unspecified), for which, under setting [1], the concentration at half-maximal activity (AC50) was 35.5 µM [falling, partial curve, poor fit].

On to `O=C(OCc1ccc(F)cc1)c1cc(=O)c2ccccc2o1`, for which, under setting [1], the AC50 is 8.91 µM [rising, partial curve, poor fit].

As to `COc1ccc(CN(CC2CCC(C(=O)O)CC2)C(=S)Nc2ccc(C)c(Cl)c2)cc1` (stereo unspecified), the AC50 under setting [1] is 10 µM [falling, partial curve, poor fit].

Regarding `CCOC(=O)c1[nH]c2cc(OC)c(OC)cc2c1NC(=O)CN1CCN(c2ccc(OC)cc2)C(C)C1` (stereo unspecified), the AC50 under setting [1] is 0.0366 µM [rising, full curve, poor fit].

With `CC(C)NC(=S)N/N=C1\CCCCC1C1CCCCC1` (stereo unspecified), the AC50 under setting [1] was 16.4 µM [rising, partial curve, poor fit].

Consider `O=C(CSc1ccc2c(c1)OCCO2)Nc1ncccc1O`, for which the AC50 under setting [1] was 13 µM [falling, partial curve, poor fit].

Take `CN1C(=O)c2c(sc3c2CC(C)(C)SC3)N2CCN=C12`: the AC50 was 20 µM [falling, single point] under setting [1] and 11.2 µM [falling, partial curve, poor fit] under setting [2].
